Screening data, single-dose tests

Amino acid sequences for entries named in this document (tags omitted). Residues count along the entry.
UniProt A4I591, 1-473: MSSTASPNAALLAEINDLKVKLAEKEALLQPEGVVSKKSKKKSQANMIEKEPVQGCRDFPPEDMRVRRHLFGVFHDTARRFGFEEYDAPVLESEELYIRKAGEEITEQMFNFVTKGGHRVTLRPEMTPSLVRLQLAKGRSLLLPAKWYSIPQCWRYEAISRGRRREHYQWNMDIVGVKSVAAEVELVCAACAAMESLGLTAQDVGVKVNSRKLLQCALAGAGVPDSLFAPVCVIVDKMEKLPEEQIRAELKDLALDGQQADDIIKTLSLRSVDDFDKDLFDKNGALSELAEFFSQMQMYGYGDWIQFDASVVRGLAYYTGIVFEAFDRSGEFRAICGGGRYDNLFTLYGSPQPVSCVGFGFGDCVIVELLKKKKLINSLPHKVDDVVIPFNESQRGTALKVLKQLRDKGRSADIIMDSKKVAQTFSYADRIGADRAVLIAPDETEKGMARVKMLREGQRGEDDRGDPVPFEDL
UniProt P9WFT3, whole entry: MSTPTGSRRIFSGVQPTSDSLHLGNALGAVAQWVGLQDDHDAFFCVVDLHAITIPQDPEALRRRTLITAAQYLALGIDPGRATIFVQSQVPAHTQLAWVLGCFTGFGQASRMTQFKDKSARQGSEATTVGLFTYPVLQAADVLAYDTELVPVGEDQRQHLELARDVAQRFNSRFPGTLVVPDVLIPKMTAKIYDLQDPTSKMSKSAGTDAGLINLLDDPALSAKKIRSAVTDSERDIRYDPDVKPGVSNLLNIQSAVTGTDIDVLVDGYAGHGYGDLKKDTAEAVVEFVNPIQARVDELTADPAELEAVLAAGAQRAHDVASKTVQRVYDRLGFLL

A: 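Histidine-tRNA ligase, Leishmania infantum (UniProt A4I591). Enzyme assay of histidyl-tRNA synthetase; the read-out is not stated. Tested at 30 µM. Higher reads as stronger inhibition (inferred: compounds with an IC50 in retests scored well above the rest). The assay is labelled LdHisRS but filed under L. infantum. About 69,000 compounds were tested under these conditions; 0.6% (about 410) showed 50% or more at least once.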
B: 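Whole-parasite assay of Trypanosoma brucei over 72 hours; the read-out is not stated. Tested at 30 µM. Higher reads as stronger inhibition (inferred: compounds with an IC50 in retests scored well above the rest). Values scatter widely below zero; nearly all retest evidence comes from the higher of the two concentrations used. About 64,000 compounds were tested under these conditions; 1.5% (about 940) showed 50% or more at least once.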
C: 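Enzyme assay of tryptophanyl-tRNA synthetase; the read-out is not stated. Target: Tryptophan-tRNA ligase, Mycobacterium tuberculosis (UniProt P9WFT3). Concentration: 10 µM. Direction is not recorded; retested compounds ran higher, which suggests that high means inhibition. Size under these conditions: about 65,000 compounds, about 64 of them at 50% or above in at least one test.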

Results are given as percent effect. How 0% and 100% were set is not recorded. Most values in the screen are low, and negative values occur. The compounds are a random part of those screened. A dash means the value is not listed here; it may have been measured.

compound | A | B | C
Cc1nn(C)c2cn(C(C)C(=O)NCc3cccc(F)c3)nc12 (stereo not given) | 10.34 | -28.49 | -1.425
Cc1noc(C(C)C)c1C(=O)NS(=O)(=O)c1ccc2c(c1)OCCCO2 | 5.714 | 17.02 | -4.555
Cn1cc(N2C(=O)C[C@@H]3[C@@H]2CCN3C(=O)c2ccco2)cn1 | 16 | - | -5.151
COc1ccccc1C(=O)N(C)C1CCN(c2ccccn2)CC1 | 15.04 | - | -4.639
COCCN1CCOCC12CCN(C(=O)c1ccncc1)CC2 | 17.43 | - | 4.813
CN(Cc1ccncn1)C(=O)c1cccc(CCC(C)(C)O)c1 | 7.292 | -25.67 | -5.255
COC(=O)[C@@H]1Cc2ncn(C)c2CN1S(=O)(=O)c1ccc(C)cc1 | 10.81 | -5.801 | -4.348
CC(=O)Nc1nc(-c2ccc(F)cc2)c[nH]1 | -1.695 | 8.385 | -0.2366
CC(=O)NCc1nn(C)c2c1CN(Cc1ccsc1)C2 | -3.03 | - | -3.091
CC(C(=O)NS(=O)(=O)Cc1cc(-c2ccccc2)no1)C1CC1 (stereo not given) | 11.11 | 16.25 | -0.3303
COc1ccc(NC(=O)c2ccco2)c(N2CCN(C(C)=O)CC2)n1 | 6.25 | -26.45 | 0.1271
CN1CCC2(CC1)CN(C(=O)c1cccc3cccnc13)CCN2C | 9.859 | -44.94 | -2.523
[H][C@]12CN(C(=O)C3CC3)CCN1C[C@@H](C(N)=O)[C@@H]2c1ccccc1 | - | -15.68 | -
Cc1cccc(CN2CCCCC2c2n[nH]cc2-c2cc(C)no2)c1.Cl (stereo not given) | - | 54.66 | -
CC[C@@H]1N(Cc2nccs2)CCC[C@]12CCC(=O)N2CCOC.O=C(O)C(F)(F)F | - | -22.72 | -
CN(Cc1cccc(C(N)=O)c1)Cc1nc2c(cnn2C)c(=O)[nH]1 | 9.649 | 14.29 | 1.002
CCN1C(=O)C2(CCCCC2)NC1c1cc(C#N)n(C)c1C (stereo not given) | -15.79 | -1.921 | -3.027
Cc1nc2ccccc2n1Cc1cc(C(=O)N2C[C@@H](C)O[C@@H](C)C2)no1 | 2 | -9.484 | 3.112
O=c1oc(-c2ccc(F)cc2)nn1CC1CCCCO1 (stereo not given) | -5.376 | -41.22 | -4.868
COCCN1CC2(CCCN(c3ncc(Cl)cc3F)C2)CCC1=O (stereo not given) | 4.167 | -35.62 | -5.594
O=C(c1ccc2c(c1)OCO2)N1CCN(c2cnccn2)CC1 | -4.255 | 17.21 | 4.826
CC(C)(C)NC(=O)N1CCN(Cc2cccnc2)CC1 | -5.747 | -13.44 | -2.529
CSC(C)(C)CNC(=O)NC1CCN(C)CC1 | 14.56 | 37.39 | 10.66
O=C(c1cnc(-c2cccnc2)nc1)N1CCC(c2ccncc2)CC1 | 22.83 | 4.746 | 1.089
Cc1noc(C)c1CN(C)C(=O)NC1CCN(C2CC2)CC1 | 6.383 | -9.282 | -0.9651
CCc1nccn1CCC(=O)N1C[C@H]2CC[C@@H]1CN(C(=O)N(C)C)C2 | -8.219 | - | 1.49
Cc1ccc(OCC(=O)NCc2ccco2)nc1 | 8.065 | -25.41 | -2.694
O=C(NCCc1ccccn1)C1=NN(c2ccccc2)C(=O)CN1 | -1.124 | -15.52 | -2.439
COC(=O)c1ccc(N2CCN(C(=O)c3cnccn3)C(C)C2)cc1 (stereo not given) | 18.18 | -6.017 | -5.726
COc1ccc(CNC(=O)N2CCCN(CC3CCCCC3)CC2)cn1 | 12.7 | 10.77 | -1.982
COc1cc(CN(C)C(=O)NCCNC(=O)C2CC2)ccc1SC | 21.21 | 3.064 | -1.211
O=C(O)C(F)(F)F.[H][C@@]12CCN(C(=O)c3ccco3)C[C@]1([H])[C@@H](CN(C)C)OC2 | - | -35.97 | -
CCSc1cc(C(=O)NCCNC(=O)N(C)C)ccn1 | 19.75 | -16.92 | 3.728
CCN1CCOCC2(CCCN(c3nncs3)C2)C1 (stereo not given) | 13.16 | -5.94 | 2.344
[H][C@@]12C[C@@H](OCC3CC3)CN1CCN(C(=O)c1cnccn1)C2 | - | -22.33 | -
[H][C@@]12COC[C@@H](CC(=O)N3CCCO3)[C@]1([H])CN(S(C)(=O)=O)C2 | - | -8.84 | -
CNC(=O)c1cc2c(nc1N(C)C)CCN(c1ncccn1)CC2.O=C(O)C(F)(F)F | - | -3.313 | -
Cc1nc(-c2ccc(S(=O)(=O)N3CCC4(CC3)OCCO4)cc2)co1 | 9.783 | -21.94 | -1.089
O=C(O)C(F)(F)F.O=C(O)C(F)(F)F.O=C(O)C(F)(F)F.O=C(O)C(F)(F)F.[H][C@@]12CN(Cc3cccnc3)C[C@]1([H])[C@@H](OC)CCN2Cc1cccc(C)n1 | - | 37.27 | -
COCC1CN(c2ncc(F)cn2)Cc2cnn(C)c21.O=C(O)C(F)(F)F.O=C(O)C(F)(F)F (stereo not given) | - | -64.93 | -
Cc1ccc(-c2nc(CN3CCc4nn(C)c(=O)cc4C3)co2)cc1 | 107.1 | -8.965 | 1.33
CN(Cc1ccc(Cl)c(F)c1)C(=O)CCc1ccncc1 | 2.564 | -2.029 | -4.935
O=C(O)C(F)(F)F.[H][C@@]12CN(c3ccc(C)nn3)C[C@H](C(=O)NCC3CC3)[C@]1([H])CCO2 | - | -3.064 | -
COCCOc1cccc(CNCc2ccc(-n3cncn3)nc2)c1 | 23.01 | -94.79 | 1.088
Cc1cnc2c(S(=O)(=O)N(C)C3CCS(=O)(=O)C3)cccc2c1 (stereo not given) | 16.67 | 14.74 | -3.005
CC(C)S(=O)(=O)N1CCC(c2[nH]ncc2S(C)(=O)=O)C1 (stereo not given) | -2 | -24.74 | -
NC(=O)c1cc2c(nc1CCOc1ccc(F)cc1)CCC2 | 8.392 | -21.31 | -0.1566
CCN1CCCC1CNCc1cc2cc(C)c(C)cc2[nH]c1=O (stereo not given) | 35.21 | - | -10.39
Cc1cnn(CC(C)NCc2ccc(OCC(N)=O)cc2)c1 (stereo not given) | 0.8696 | -19.83 | 7.923
O=C(O)C(F)(F)F.[H][C@@]12C[C@H](C(=O)N(C)C)CN(Cc3ccc4c(c3)OCO4)[C@]1([H])CCO2 | - | -3.267 | -
Cc1cnn(CCNCc2ccc(OCc3ccccn3)cc2)c1 | 18.75 | 45.32 | 0.9413
O=C(O)C(F)(F)F.[H][C@@]12CCN(c3nncs3)C[C@]1([H])O[C@@H](C(=O)NCC1CCOCC1)C2 | - | -23.29 | -
COc1ccc(CNC(=O)c2ccc(=O)n(C)c2)cc1C | -2.083 | -1.166 | 3.767
O=C(CNC(=O)C1CCCC1)NCc1cnn(-c2ccc(F)cc2F)c1 | 16.44 | 16.79 | -1.433
COCC1COCCC12CCN(C(=O)CC1=CCCCC1)CC2 (stereo not given) | 15.52 | -60.75 | -0.3236
COC(=O)[C@H](CCSC)NC(=O)Cn1ccc2c(Cl)cccc21 | 7.895 | -28.3 | -0.07003
NC(=O)C1CCN(CCCNC(=O)Nc2nncs2)CC1 | -1.205 | -11.05 | -1.989
CCc1cnc(NCCS(=O)(=O)N(C)C)nc1 | 15.87 | -0.3064 | 0.9909
CN(C)c1ccc(CNC(=O)Nc2ccc(S(=O)(=O)C(F)F)cc2)cc1 | 23.94 | 71.22 | -2.119
CCc1cnc(C)nc1N1CCC(Cc2cccc(C(=O)O)c2)C1 (stereo not given) | 9.836 | -70.62 | 5.125
C=C(C)CN(c1cn[nH]c1)S(=O)(=O)c1cccc(C#N)c1 | -4.464 | -36.08 | -1.652
Cc1ccc(-c2cc(CN3CCc4cncnc4C3)on2)cc1 | 0 | -13.21 | -2.167
O=C(O)C(F)(F)F.[H][C@@]12CCN(CCOC)C[C@]1([H])[C@H](C(=O)N1CCCO1)CCO2 | - | -9.775 | -

Source: ChEMBL document CHEMBL3988442, “University of Dundee, Small-Polar-MMV Screening Library” (2021).